{
  "source": "PubChem BioAssay AID540303",
  "about": "(National Center for Advancing Translational Sciences (NCATS), 2011)",
  "note": "The campaign covered roughly 330,000 compounds. About 1,000 (0.3%) were called active. This list was built around the results that the source calls inconclusive (neither active nor inactive); the mix of calls is not that of the screen. Calls come from the whole dose curve; as a rule, active = well fitted inhibition curve with a large enough effect; inconclusive = small, poorly fitted or top-dose-only effect; inactive = no such curve, though single readings can be large or run the other way; tested in mouse RAW 264.7 cells. Potencies beside an inconclusive call are fits to weak or partial responses and may not hold up. % is set by controls: 0 for no effect and ±100 for the full control effect; potency is the fitted concentration of half-maximal effect.",
  "data": [
    {"assay": "qHTS for Inhibitors of Cell Surface uPA Generation; note: nearly all actives have a fitted effect of over 55% in size", "conditions": "cell surface uPA generation assay; series mostly up to 38.3 µM; activity change, negative = inhibition: at the top concentration", "summary_of_the_method": "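Validation set in qHTS format. RAW 264.7 cells were pre-plated overnight and then exposed to compounds (up to 38.3 uM final) for 24 h at 37 C in 5% CO2, followed by a luminescent ATP-Lite measurement.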", "values": [
      {"smiles": "COc1ccc(/C(C)=N/NC(=O)CNC(=O)/C=C\\c2ccccc2)c(OC)c1", "Potency": "inconclusive: 2.82 µM [inhibitor, partial curve, poor fit]"},
      {"smiles": "Cc1ccc2c(c1)c(C1=c3ccccc3=NC1=O)c(O)n2C", "Potency": "inconclusive: 1.58 µM [inhibitor, full curve, poor fit]"},
      {"smiles": "CCOc1cc(/C=N/NC(=O)c2ccc3c(c2)OCCO3)cc(Br)c1O", "activity change, negative = inhibition": "inactive: 0.409%"},
      {"smiles": "CCN(CC)c1ccc(NC(=O)C2=CC=CN3CCS(=O)(=O)N=C23)cc1", "Potency": "inconclusive: 8.91 µM [inhibitor, partial curve, poor fit]"},
      {"smiles": "COc1ccc(NS(=O)(=O)c2cc3c(cc2C)N(C)CCO3)c(OC)c1", "Potency": "inconclusive: 12.6 µM [inhibitor, single point]"},
      {"smiles": "Cc1ccc(Cl)cc1Nc1nc(-c2sc(NC(=O)C(C)(C)C)nc2C)cs1", "Potency": "inconclusive: 12.6 µM [inhibitor, single point]"},
      {"smiles": "Cc1ccc(C2=NNC(C(O)C(O)C(O)CO)S2)cc1", "note": "(stereo unspecified)", "activity change, negative = inhibition": "inactive: 1.99%"},
      {"smiles": "O=C(CN1CCCC1c1cccs1)Nc1cc(S(=O)(=O)N2CCCCC2)ccc1Cl", "note": "(stereo unspecified)", "Potency": "inconclusive: 22.4 µM [inhibitor, single point]"},
      {"smiles": "CCOCCn1c2ccccc2c2nc3ccccc3nc21", "Potency": "inconclusive: 2.82 µM [inhibitor, single point]"},
      {"smiles": "CN1C/C(=C/c2ccccc2[N+](=O)[O-])C(=O)/C(=C\\c2ccccc2[N+](=O)[O-])C1", "activity change, negative = inhibition": "inactive: -3.97%"},
      {"smiles": "COC(=O)c1c(-c2ccccc2OC)sc2ccccc12", "Potency": "inconclusive: 12.6 µM [inhibitor, single point]"},
      {"smiles": "CN(C(=O)c1cccc(NC(=O)Cc2ccc(NC(=O)C3CCCN(C(=O)CCc4ccccc4)C3)cc2)c1)C1CCC1", "note": "(stereo unspecified)", "Potency": "inconclusive: 28.2 µM [inhibitor, single point]"},
      {"smiles": "COc1ccc(OC)c(Nc2cc3ccccc3c(=O)[nH]2)c1", "Potency": "inconclusive: 1.78 µM [inhibitor, full curve, poor fit]"},
      {"smiles": "CCCCc1ccc(NC(=S)NCCc2ccc(S(N)(=O)=O)cc2)cc1", "activity change, negative = inhibition": "inactive: 1.53%"},
      {"smiles": "O=C(C1CCN(c2ncnc3c2sc2cccc(F)c23)CC1)N1CCOCC1", "Potency": "inconclusive: 28.2 µM [inhibitor, single point]"},
      {"smiles": "COc1ccccc1NC(=O)CCSc1nnc(-c2ccco2)o1", "activity change, negative = inhibition": "inactive: 1.78%"},
      {"smiles": "COc1ccc(C(C)=O)cc1COC(=O)C1CCN(C(=O)c2ccc(Cl)cc2)CC1", "Potency": "inconclusive: 6.31 µM [inhibitor, partial curve, poor fit]"},
      {"smiles": "COc1ccc(CC(=O)N/N=C/c2c(C)n(C)c3ccccc23)cc1OC", "Potency": "inconclusive: 2.82 µM [inhibitor, full curve]"},
      {"smiles": "Fc1ccc(CNC(=S)Nc2cccc(C(F)(F)F)c2)cc1", "activity change, negative = inhibition": "inactive: 2.9%"},
      {"smiles": "CCC1CCCCN1C(=O)c1cc(-c2ccc(Cl)c(Cl)c2)on1", "note": "(stereo unspecified)", "Potency": "inconclusive: 12.6 µM [inhibitor, single point]"},
      {"smiles": "CCCCNc1c(-c2ccc(SC(C)CC)c(OC)c2)nc2ccc(C)cn12", "note": "(stereo unspecified)", "Potency": "inconclusive: 7.94 µM [inhibitor, single point]"},
      {"smiles": "CC(C)(C)n1nc2c(c1NC(=O)COc1ccc(F)cc1)CS(=O)(=O)C2", "activity change, negative = inhibition": "inactive: -1.79%"},
      {"smiles": "Cc1ccc(Nc2nc(CSc3n[nH]c(N)n3)cs2)cc1", "Potency": "inconclusive: 7.08 µM [inhibitor, partial curve, poor fit]"},
      {"smiles": "O=C(Nc1nc(-c2ccccn2)cs1)c1ccc2c(c1)OCCO2", "Potency": "active: 2.51 µM"},
      {"smiles": "COc1ccc(NC(=O)c2cc(C3CC3)on2)c(OC)c1", "Potency": "inconclusive: 12.6 µM [inhibitor, single point]"},
      {"smiles": "C=CCNC(=S)/N=c1/scc(C)n1C", "Potency": "inconclusive: 4.47 µM [inhibitor, partial curve]"},
      {"smiles": "O=C(CSc1n[nH]c(-c2ccccc2)n1)Nc1ccccc1O", "Potency": "inconclusive: 2.51 µM [inhibitor, full curve, poor fit]"},
      {"smiles": "Fc1ccc(CN2CC[C@H]3C=CCc4cccc(c43)C2)cc1", "Potency": "inconclusive: 10 µM [inhibitor, single point]"},
      {"smiles": "O=C(c1ccccn1)N1CCCC(N2CCN(c3ccc(F)cc3)CC2)C1", "note": "(stereo unspecified)", "activity change, negative = inhibition": "inactive: -1.06%"},
      {"smiles": "CCOC(=O)c1c(CC(C)C)csc1NC(=O)COC(=O)c1cc(OC)c(OC)cc1[N+](=O)[O-]", "Potency": "inconclusive: 0.316 µM [inhibitor, full curve, poor fit]"},
      {"smiles": "COC(=O)c1[nH]c2c(c1C)C(=O)CC(c1ccccc1)C2", "note": "(stereo unspecified)", "Potency": "inconclusive: 0.0355 µM [inhibitor, full curve]"},
      {"smiles": "C/C=C/C1=CC(=O)C[C@H](c2ccc3c(c2)OCO3)C1", "Potency": "inconclusive: 11.2 µM [inhibitor, partial curve, poor fit]"},
      {"smiles": "COc1ccc(-c2cc(C(F)(F)F)n3nc(C(=O)N4CCCCC4)cc3n2)cc1", "Potency": "inconclusive: 1.26 µM [inhibitor, full curve, poor fit]"},
      {"smiles": "CSc1ccc(C2C(C(=O)c3ccco3)=C(O)C(=O)N2c2nnc(SC)s2)cc1", "note": "(stereo unspecified)", "Potency": "inconclusive: 1.78 µM [inhibitor, partial curve, poor fit]"},
      {"smiles": "Brc1ccc(CSc2ncnc3nc[nH]c23)cc1", "Potency": "inconclusive: 4.47 µM [inhibitor, partial curve, poor fit]"},
      {"smiles": "CCOC(=O)CNC(=O)N(CCOC)CC1CCCN(C2Cc3ccccc3C2)C1", "note": "(stereo unspecified)", "Potency": "inconclusive: 1.41 µM [inhibitor, single point]"},
      {"smiles": "Cc1cc(C)c(NC(=O)OCCN2CCOCC2)c(C)c1", "activity change, negative = inhibition": "inactive: -1.36%"},
      {"smiles": "O=C(Cn1c(=O)oc2cc(S(=O)(=O)N3CCCCCC3)ccc21)NC1CCCCCCC1", "Potency": "inconclusive: 3.98 µM [inhibitor, partial curve, poor fit]"},
      {"smiles": "O=C1N(c2ccccc2C(F)(F)F)O[C@@]1(c1ccccc1)C1CCCC1", "Potency": "inconclusive: 11.2 µM [inhibitor, single point]"},
      {"smiles": "O=C1COc2ccc(-c3csc(NCCc4ccccc4)n3)cc2N1", "activity change, negative = inhibition": "inactive: 1.23%"},
      {"smiles": "Cc1ccc(C(=O)/C=C/c2ccc3c(c2)OCO3)o1", "Potency": "inconclusive: 7.08 µM [inhibitor, single point]"},
      {"smiles": "N#CC1=C2SCN(Cc3ccccc3)CN2C(=O)CC1c1ccccc1F", "note": "(stereo unspecified)", "Potency": "inconclusive: 3.16 µM [inhibitor, full curve, poor fit]"},
      {"smiles": "COc1ccc(C)cc1Nc1n[n+](-c2ccccc2)c(-c2ccc(OC)c(OC)c2OC)s1", "Potency": "inconclusive: 11.2 µM [inhibitor, single point]"},
      {"smiles": "N#Cc1c(Nc2ccccc2)s[nH]c1=O", "activity change, negative = inhibition": "inactive: -8.04%"},
      {"smiles": "O=C(CCC1CCN(C(=O)c2cccc(Cl)c2F)CC1)Nc1ccccc1", "Potency": "inconclusive: 1.26 µM [inhibitor, partial curve, poor fit]"},
      {"smiles": "CN(C)S(=O)(=O)c1ccc2oc(SCC(=O)Nc3ccccc3F)nc2c1", "Potency": "inconclusive: 10 µM [inhibitor, partial curve]"},
      {"smiles": "O=C(Cc1ccc(Br)c2ccccc12)N/N=C/c1ccccn1", "activity change, negative = inhibition": "inactive: -6.83%"},
      {"smiles": "Cc1ccc(-c2nnc(Nc3ccccc3)o2)cc1", "Potency": "inconclusive: 2.24 µM [inhibitor, full curve]"},
      {"smiles": "O=C(N/N=C/c1ccc([N+](=O)[O-])o1)C(O)c1ccccc1", "note": "(stereo unspecified)", "Potency": "inconclusive: 11.2 µM [inhibitor, partial curve, poor fit]"},
      {"smiles": "O=C(c1cc2cc(F)ccc2[nH]1)N1CCN(c2cccc(Cl)c2)CC1", "activity change, negative = inhibition": "inactive: -25.7%"},
      {"smiles": "COc1cccc(-c2nn(-c3ccc(C)cc3)cc2C(=O)N2CCc3cc(OC)c(OC)cc3C2)c1", "Potency": "inconclusive: 22.4 µM [inhibitor, single point]"},
      {"smiles": "COc1ccc(OC(=O)COc2ccccc2C)cc1", "Potency": "inconclusive: 12.6 µM [inhibitor, partial curve, poor fit]"},
      {"smiles": "Cc1ccc(-n2nc3c(=O)n(C(C)C(=O)NCc4ccc5c(c4)OCO5)nc(C)c3c2C)cc1", "note": "(stereo unspecified)", "Potency": "inconclusive: 0.398 µM [inhibitor, partial curve, poor fit]"},
      {"smiles": "O=C(c1n[nH]c2ccccc12)N1CCCCC1", "activity change, negative = inhibition": "inactive: 5.68%"},
      {"smiles": "CC[C@]12c3[nH]c4cc(-c5ccco5)ccc4c3CCN1C(=O)[C@@H](CC(=O)NCc1ccc(OC)c(OC)c1)C[C@@H]2C(=O)N1CCN(C(=O)c2ccco2)CC1", "Potency": "inconclusive: 28.2 µM [inhibitor, single point]"},
      {"smiles": "Cc1ccc(-c2nc(N/N=C/c3cccnc3)c3ccccc3n2)cc1", "Potency": "inconclusive: 2.51 µM [inhibitor, full curve]"},
      {"smiles": "CCc1ccccc1N(CC)C(=O)C1CCN(c2ncnc3c2nc2n3CCCCC2)CC1", "Potency": "inconclusive: 10 µM [inhibitor, partial curve, poor fit]"},
      {"smiles": "CCOc1ccc(NC(=O)CN(C)C(=O)c2ccc(-c3ccc(C(C)=O)cc3)o2)cc1OCC", "Potency": "inconclusive: 3.55 µM [inhibitor, full curve, poor fit]"},
      {"smiles": "CCOC(=O)C1=CC[C@@H](c2cc3ccc(OC)cc3n2C)N(S(=O)(=O)c2ccc(C)cc2)[C@H]1C(=O)OCC", "activity change, negative = inhibition": "inactive: 10.1%"},
      {"smiles": "Cc1cccc(Nc2nc(-c3ccncc3)cs2)c1", "Potency": "inconclusive: 7.94 µM [inhibitor, partial curve, poor fit]"},
      {"smiles": "CCOC(=O)C(=Cc1cc(=O)c(OC)co1)C(=O)OCC", "Potency": "inconclusive: 5.01 µM [inhibitor, full curve, poor fit]"},
      {"smiles": "Cc1nn(C)cc1S(=O)(=O)Nc1ccccc1Br", "Potency": "inconclusive: 1.26 µM [inhibitor, partial curve, poor fit]"},
      {"smiles": "Cc1ccc2nc(Cl)c(/C=N/Nc3ccc(C(=O)O)cc3)cc2c1", "Potency": "active: 3.98 µM"},
      {"smiles": "OC1(c2ccc(Cl)c(Cl)c2)C[n+]2ccccc2N1Cc1ccccc1", "note": "(stereo unspecified)", "activity change, negative = inhibition": "inactive: 0.503%"},
      {"smiles": "CN(C)c1ccc(-c2nn3c(-c4ccccc4Cl)nnc3s2)cc1", "activity change, negative = inhibition": "inactive: -6.85%"},
      {"smiles": "COc1ccc(CCNC(=O)c2coc(=O)c(Br)c2)cc1", "Potency": "inconclusive: 6.31 µM [inhibitor, partial curve, poor fit]"}
    ]}
  ]
}
